This assay deals with GST-RapA fusion protein preloaded with GppNHp (Dictyostelium discoideum) (UniProt P18613). As to the kind of experiment: affinity purification with mass spectrometry; 3-5 mg purified GST-RapA preloaded with GppNHp prebound to a GSH column; lysate of vegetative Dictyostelium cells circulated overnight; eluted with glutathione; LC-MS/MS; only the target purified.

Amino acid sequences for entries named in this document (tags omitted).
UniProt P18613: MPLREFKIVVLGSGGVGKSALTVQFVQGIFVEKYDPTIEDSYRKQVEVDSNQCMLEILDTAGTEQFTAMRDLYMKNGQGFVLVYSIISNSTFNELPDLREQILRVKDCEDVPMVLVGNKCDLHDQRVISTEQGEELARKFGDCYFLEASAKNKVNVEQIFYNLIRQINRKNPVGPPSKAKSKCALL

Results are given in words; binding and its absence hold for the method and conditions named. Binding seen in cells or lysates may run through a third protein. Here binding means that the protein was enriched with, or labelled near, the bait; the list need not be complete.

B1: GxcC (Guanine eXchange factor for raC) (protein, UniProt Q54P24 1-1215)
chain: MPIQFDAGLEQQVNQFLGDVDDFLTVKTGTTVDKLKSLLNCEEKSISYNAIAFLAFANQAAVNKDASREAGLIKLFLEFCHPSKIITVLPMVKHASMGLMFLANHSDENKKEIGDLKGIDTIFELLRDLLVMIKSPPEDVKKEDIVSSISQSLNLVIFLASLQSNREVMGTVQNFLVLNSLLAYENPQSLDLQLQIQEKALSATNNICMHKENKENCRVAGCIENVLKLLKSTKPSIQDSSLRMLYNMTITDANREAIRRCKGLETLASMLSGQAEALTLLSLKALSNMAVDRQTIEYAVANQESVLQPIYGVFPSSYGQGCSDALLDQVLTVIQNLVSEENLIDTVAKSGIIAKLVGATKGMPLTNTTHQSILVKASCIISALITIEEVQQAAVEQGVITLLVEMIQLPSAEVRREAARALANATPYYDDVRAEIGAQGGVKLCVDLLLQADKELVKQAARALVNLARNTHNEEKLYESKGLEHSIRLINSPEKDLKMLGTKLLVNLSLNEQARIAFCQKGGLSIVVQLLTSSDPELQLQGTKIATNLAISGRNRKVMNEQAPDLIPALKALVNSSVSDIKLQSEVSLNNLAFPYEASYEGLDQMEDAMPIFMQSSQYERDDDDEDDEDEAEKDERRRQEEEELRLAAEKEVEERKRIMQEEVKRIEERRKAEHEKRLQEEQELRQKKEEAEKLRLAQEAMEKLRLEQEAAAAAEAEKIRLAEEQRIIKEKEVAEQERIKQLTEQQKQKEEEEAKIALEKAKKEEAERLEKAEALRLQKEQEERIRKEKEIEAERLRVQEEERLAKERQAEEDRMRAVEEEKLKLMEAEIKQREEDIRRQKIEEEERRKREEQEKKLKDQQDKASQESARLAQEAARAQKRTHIVQEIMQVEVNYVKNLTLMVRKFLHPLAQLSTSKRPLLTPDRITQIFSTIENIQNHNSIFSDGLTSRIKRWLADNKKDHLIIGDIFQKIGGFMQDYSKYINNYNQSIKTYNETKKTNLPFAQFIKKVESDPELNDRELENLLITPVQQLPRYIMLIQDLIRNTHDDHPDYKPLTEALDKIKHITTIINEKKRDAEDAFAMLQIHQQVHGKVPNNFVTPHRKFIREGAVHFGSSSGSFKDKDPIVFLFNDMVMMTIKHPNKPNEYKYRYSCQFSTTTTIEELPSVNNGFIIKSNQWWSFSCSTPQEKTSWMETIQKSLTNLPKESKVLTSKK
On to B1, for which the binding entry was “binds”.

The values above are taken from publication PMC3675359, “GxcC connects Rap and Rac signaling during Dictyostelium development” (BMC Cell Biology, 2013).
